From patent US20160051641

System: thrombin
Experiment: inhibition of the protein
Settings: clotting assay, 10 IU/ml thrombin; TBA2 inhibition reversed by its antisense less efficiently than TBA1; exosite II binder; purified native protein; single-stranded DNA; dose not given here

**Q.** Which “functional effect of the aptamer” value does the source give for “AGTCCGTGGTAGGGCAGGTTGGGGTGACT [TBA2 (TASSET-29)]” here?
**A.** active
